# The list shows a part of the results.
# Amino acid sequences for entries named in this document (tags omitted). A change or cut given only in a name is not applied to a line headed by its entry.
# UniProt Q6P444: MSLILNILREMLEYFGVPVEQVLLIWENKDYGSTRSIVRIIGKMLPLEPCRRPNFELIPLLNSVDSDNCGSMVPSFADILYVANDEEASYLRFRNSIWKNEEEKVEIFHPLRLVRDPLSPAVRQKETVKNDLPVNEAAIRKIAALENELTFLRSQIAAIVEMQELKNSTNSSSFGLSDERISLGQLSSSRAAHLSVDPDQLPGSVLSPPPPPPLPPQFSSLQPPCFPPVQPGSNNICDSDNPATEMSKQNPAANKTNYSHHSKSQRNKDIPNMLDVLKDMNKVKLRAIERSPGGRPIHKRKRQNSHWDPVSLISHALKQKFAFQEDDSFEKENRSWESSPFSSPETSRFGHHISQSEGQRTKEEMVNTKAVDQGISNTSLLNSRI
# UniProt Q68DK7: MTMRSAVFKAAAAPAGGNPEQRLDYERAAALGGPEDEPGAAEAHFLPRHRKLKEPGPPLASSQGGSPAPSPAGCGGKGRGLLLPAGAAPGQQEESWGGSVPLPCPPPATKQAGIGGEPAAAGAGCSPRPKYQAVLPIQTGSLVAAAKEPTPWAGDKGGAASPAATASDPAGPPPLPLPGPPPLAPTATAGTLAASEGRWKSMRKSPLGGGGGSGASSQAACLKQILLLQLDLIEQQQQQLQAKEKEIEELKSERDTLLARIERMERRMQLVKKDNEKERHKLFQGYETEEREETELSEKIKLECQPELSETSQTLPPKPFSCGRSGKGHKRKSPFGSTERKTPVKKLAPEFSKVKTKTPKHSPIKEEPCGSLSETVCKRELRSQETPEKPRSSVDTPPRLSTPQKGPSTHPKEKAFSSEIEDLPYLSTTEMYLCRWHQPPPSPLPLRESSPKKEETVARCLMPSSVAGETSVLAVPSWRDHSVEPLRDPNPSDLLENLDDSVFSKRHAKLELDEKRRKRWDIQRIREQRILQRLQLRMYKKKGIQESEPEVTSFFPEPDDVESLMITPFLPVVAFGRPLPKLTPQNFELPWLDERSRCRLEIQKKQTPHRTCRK
# UniProt Q9BRK3: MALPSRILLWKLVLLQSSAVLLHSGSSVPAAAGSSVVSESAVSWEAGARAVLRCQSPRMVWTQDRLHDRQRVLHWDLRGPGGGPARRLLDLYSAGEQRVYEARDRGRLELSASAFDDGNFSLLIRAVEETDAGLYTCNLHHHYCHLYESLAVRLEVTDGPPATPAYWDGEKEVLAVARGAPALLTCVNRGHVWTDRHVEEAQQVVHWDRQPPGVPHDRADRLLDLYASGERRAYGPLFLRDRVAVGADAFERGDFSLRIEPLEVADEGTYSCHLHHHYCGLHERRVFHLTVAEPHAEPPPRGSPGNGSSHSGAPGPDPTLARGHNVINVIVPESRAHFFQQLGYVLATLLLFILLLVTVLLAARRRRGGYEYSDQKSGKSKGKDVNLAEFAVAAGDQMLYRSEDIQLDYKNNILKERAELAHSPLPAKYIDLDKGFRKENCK
# UniProt Q99836, whole entry, looked up: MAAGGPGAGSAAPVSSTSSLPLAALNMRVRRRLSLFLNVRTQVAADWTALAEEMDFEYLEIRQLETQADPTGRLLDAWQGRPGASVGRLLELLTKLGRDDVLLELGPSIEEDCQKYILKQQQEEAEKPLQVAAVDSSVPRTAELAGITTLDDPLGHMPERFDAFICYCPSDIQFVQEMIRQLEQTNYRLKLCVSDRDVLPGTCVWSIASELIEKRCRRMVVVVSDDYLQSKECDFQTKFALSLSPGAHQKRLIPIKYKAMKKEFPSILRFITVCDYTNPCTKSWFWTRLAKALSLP
# UniProt Q969V5: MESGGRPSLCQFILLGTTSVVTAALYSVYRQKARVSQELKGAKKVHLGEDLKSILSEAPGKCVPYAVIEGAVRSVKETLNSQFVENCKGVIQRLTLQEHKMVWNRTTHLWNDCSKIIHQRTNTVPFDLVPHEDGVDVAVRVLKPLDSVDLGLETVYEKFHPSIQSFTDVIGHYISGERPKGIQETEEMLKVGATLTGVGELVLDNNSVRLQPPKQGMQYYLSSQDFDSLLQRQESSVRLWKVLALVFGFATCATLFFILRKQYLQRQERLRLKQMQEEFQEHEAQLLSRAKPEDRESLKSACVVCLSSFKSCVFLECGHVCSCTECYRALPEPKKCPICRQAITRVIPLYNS
# UniProt P00414, whole entry, looked up: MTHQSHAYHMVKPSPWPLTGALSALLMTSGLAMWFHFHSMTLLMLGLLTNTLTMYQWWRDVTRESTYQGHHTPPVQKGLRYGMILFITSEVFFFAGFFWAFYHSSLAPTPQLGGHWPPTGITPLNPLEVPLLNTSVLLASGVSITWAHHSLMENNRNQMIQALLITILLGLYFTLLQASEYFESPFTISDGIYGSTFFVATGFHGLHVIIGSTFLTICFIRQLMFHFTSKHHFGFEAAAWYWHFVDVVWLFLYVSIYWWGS
# UniProt P03886, whole entry, looked up: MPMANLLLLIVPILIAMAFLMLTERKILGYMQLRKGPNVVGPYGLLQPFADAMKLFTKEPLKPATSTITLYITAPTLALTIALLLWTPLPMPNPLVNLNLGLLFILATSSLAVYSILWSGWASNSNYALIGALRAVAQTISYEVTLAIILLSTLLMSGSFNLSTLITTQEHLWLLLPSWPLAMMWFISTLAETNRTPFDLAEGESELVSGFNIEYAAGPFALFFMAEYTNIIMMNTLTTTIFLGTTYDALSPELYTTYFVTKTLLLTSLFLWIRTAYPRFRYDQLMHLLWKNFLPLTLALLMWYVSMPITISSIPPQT
# UniProt P11586, whole entry, looked up: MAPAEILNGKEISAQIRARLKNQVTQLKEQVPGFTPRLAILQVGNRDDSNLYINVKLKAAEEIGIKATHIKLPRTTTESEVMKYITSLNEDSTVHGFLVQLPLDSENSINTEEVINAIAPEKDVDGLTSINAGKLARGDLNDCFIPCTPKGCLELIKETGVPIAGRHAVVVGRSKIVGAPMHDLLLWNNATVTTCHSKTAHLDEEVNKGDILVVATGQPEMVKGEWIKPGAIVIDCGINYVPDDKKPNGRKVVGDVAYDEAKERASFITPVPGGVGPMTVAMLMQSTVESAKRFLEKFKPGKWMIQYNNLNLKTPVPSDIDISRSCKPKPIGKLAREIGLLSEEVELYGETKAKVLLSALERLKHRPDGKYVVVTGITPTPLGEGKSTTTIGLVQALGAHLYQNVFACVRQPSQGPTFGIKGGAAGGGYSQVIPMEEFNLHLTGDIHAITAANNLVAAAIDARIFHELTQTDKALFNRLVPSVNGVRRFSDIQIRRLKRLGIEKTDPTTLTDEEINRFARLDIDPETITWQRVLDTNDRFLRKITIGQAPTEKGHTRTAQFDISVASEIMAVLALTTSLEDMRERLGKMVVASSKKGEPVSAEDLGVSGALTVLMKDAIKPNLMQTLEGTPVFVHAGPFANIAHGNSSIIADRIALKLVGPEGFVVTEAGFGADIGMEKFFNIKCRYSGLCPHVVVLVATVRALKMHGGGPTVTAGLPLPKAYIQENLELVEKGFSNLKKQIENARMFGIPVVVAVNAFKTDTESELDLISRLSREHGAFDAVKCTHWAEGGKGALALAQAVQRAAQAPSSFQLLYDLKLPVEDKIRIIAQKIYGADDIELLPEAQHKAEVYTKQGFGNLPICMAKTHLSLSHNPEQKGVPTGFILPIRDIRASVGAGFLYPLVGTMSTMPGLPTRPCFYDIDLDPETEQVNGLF
# UniProt O75570: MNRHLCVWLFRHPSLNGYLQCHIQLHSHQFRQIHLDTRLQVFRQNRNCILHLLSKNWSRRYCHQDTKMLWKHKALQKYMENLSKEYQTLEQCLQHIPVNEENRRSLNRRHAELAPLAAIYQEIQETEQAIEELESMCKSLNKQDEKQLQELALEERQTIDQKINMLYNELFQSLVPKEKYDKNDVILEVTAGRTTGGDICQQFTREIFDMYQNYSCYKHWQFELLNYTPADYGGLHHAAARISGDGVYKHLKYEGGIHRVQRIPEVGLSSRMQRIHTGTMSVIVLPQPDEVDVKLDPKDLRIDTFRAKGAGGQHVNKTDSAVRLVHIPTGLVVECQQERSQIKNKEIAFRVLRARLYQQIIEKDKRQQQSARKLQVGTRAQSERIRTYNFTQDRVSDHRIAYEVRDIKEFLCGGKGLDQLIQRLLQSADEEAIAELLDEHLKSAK
# UniProt B2RTY4: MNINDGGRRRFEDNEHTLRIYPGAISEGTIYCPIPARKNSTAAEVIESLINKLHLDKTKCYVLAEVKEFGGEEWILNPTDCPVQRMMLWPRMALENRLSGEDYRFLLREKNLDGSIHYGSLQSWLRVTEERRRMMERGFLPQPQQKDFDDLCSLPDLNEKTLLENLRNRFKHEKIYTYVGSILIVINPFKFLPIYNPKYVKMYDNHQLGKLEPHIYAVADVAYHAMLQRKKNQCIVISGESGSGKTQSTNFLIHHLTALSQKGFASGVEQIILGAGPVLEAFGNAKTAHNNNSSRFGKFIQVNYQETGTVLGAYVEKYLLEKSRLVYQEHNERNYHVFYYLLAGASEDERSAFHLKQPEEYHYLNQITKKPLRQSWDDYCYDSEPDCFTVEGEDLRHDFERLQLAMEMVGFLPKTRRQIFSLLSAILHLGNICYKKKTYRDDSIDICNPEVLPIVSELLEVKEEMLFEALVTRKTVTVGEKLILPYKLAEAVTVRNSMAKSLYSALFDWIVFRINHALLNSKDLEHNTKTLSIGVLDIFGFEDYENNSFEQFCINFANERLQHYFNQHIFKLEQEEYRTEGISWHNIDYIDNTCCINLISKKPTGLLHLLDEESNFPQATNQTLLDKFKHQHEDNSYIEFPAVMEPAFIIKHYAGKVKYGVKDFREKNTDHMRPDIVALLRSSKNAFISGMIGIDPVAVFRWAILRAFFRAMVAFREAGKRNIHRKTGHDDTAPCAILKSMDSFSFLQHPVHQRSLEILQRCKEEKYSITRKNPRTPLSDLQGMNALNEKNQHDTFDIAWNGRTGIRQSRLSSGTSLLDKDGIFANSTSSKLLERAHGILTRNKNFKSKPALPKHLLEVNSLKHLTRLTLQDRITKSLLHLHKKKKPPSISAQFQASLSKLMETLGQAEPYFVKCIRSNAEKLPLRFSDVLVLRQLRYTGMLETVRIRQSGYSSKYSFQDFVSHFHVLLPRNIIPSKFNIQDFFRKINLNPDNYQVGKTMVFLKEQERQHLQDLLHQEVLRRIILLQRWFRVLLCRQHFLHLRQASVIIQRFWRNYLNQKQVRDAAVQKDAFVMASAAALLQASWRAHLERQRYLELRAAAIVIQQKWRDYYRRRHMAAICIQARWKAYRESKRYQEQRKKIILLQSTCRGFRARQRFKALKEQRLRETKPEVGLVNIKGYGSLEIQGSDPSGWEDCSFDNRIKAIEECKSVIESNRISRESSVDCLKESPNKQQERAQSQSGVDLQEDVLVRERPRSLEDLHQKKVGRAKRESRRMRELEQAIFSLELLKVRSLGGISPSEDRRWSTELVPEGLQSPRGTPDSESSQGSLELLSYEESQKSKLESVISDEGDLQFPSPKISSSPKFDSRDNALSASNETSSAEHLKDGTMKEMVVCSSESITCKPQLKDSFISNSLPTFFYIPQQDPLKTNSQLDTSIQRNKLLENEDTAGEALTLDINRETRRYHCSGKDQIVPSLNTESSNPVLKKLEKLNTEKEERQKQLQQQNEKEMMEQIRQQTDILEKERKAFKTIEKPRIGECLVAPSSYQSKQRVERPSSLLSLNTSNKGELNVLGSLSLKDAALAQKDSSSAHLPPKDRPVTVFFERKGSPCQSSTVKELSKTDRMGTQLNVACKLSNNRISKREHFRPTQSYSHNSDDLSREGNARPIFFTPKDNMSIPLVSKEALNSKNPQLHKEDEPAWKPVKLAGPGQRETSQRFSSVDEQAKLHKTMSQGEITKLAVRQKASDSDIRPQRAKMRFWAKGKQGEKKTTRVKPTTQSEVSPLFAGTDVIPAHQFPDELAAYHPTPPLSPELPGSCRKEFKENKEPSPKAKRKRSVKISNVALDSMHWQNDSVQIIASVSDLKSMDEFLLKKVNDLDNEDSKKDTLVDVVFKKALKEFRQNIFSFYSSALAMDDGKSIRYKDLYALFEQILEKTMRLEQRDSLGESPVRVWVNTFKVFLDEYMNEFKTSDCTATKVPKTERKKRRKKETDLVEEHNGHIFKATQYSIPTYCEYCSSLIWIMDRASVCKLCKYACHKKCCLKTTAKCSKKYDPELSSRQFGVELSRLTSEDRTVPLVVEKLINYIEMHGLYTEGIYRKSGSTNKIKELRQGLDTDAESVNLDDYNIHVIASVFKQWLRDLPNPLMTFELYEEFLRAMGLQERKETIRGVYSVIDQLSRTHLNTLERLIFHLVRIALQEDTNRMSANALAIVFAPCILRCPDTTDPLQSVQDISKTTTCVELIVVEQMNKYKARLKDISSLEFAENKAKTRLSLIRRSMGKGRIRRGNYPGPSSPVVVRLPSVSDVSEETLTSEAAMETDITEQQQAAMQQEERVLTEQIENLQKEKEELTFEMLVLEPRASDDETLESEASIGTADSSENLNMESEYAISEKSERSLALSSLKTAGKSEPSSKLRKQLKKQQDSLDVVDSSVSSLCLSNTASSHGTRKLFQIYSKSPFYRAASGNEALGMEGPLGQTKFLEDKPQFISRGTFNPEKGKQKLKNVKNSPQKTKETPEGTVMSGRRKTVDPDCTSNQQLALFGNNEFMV
# Columns and labels:
# Test in all cases: log2 fold change, soluble protein after heating vs DMSO (PISA); higher = thermal stabilisation; K562 cells, 10 uM, 30 min; active = over 0.2 and 3.5 SD of the protein, either way, in both replicates (recomputed)
# [1] = compound: COC1=CC=C(C=C1)CN2C=CC3=C2C=C(C=C3)C(=O)NO
# Summary of the method: (§1)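 For each measurement, 10 μM compound was applied for 30 min to K562 cells at 2×10^6 cells/mL. Aliquots were heated for 3 min across 48°C-58°C, pooled, and extracted in PBS with 0.5% NP-40 at 4°C; the supernatant after 21,000xg for 90 min was soluble protein. This was quantified by TMTpro 16plex LC-MS/MS with channel sums equalised, and thermal stability was reported relative to control samples from duplicates, on a log2 fold-change scale.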
# filanesib = compound: CON(C)C(=O)N1N=C(c2cc(F)ccc2F)S[C@@]1(CCCN)c1ccccc1 [filanesib]
# Summary of the method: as §1
# zotarolimus = compound: CO[C@H]1C[C@@H]2CC[C@@H](C)[C@@](O)(O2)C(=O)C(=O)N2CCCC[C@H]2C(=O)O[C@H]([C@H](C)C[C@@H]2CC[C@H](n3cnnn3)[C@H](OC)C2)CC(=O)[C@H](C)/C=C(\C)[C@@H](O)[C@@H](OC)C(=O)[C@H](C)C[C@H](C)/C=C/C=C/C=C/1C [zotarolimus]
# Summary of the method: as §1
# idasanutlin = compound: COc1cc(C(=O)O)ccc1NC(=O)[C@@H]1N[C@@H](CC(C)(C)C)[C@](C#N)(c2ccc(Cl)cc2F)[C@H]1c1cccc(Cl)c1F [idasanutlin]
# Summary of the method: as §1
# alisertib = compound: COc1cc(Nc2ncc3c(n2)-c2ccc(Cl)cc2C(c2c(F)cccc2OC)=NC3)ccc1C(=O)O [alisertib]
# Summary of the method: as §1
# [2] = compound: COc1cc2nc(-c3cc(F)ccc3O)nc(N[C@@H]3CNC[C@H]3C(C)(C)O)c2cc1OC
# Summary of the method: as §1
# gefitinib = compound: COc1cc2ncnc(Nc3ccc(F)c(Cl)c3)c2cc1OCCCN1CCOCC1 [gefitinib]
# Summary of the method: as §1
# [3] = compound: COc1cccc2cc(-c3nc([C@H]4CC[C@H](C(=O)O)CC4)n4ncnc(N)c34)[nH]c12
# Summary of the method: as §1
# lapatinib = compound: CS(=O)(=O)CCNCc1ccc(-c2ccc3ncnc(Nc4ccc(OCc5cccc(F)c5)c(Cl)c4)c3c2)o1 [lapatinib]
# Summary of the method: as §1
# [4] = compound: CS(=O)(=O)c1ccc(-c2cnc(N)c(C(=O)Nc3ccccc3)n2)cc1
# Summary of the method: as §1
# crizotinib = compound: C[C@@H](Oc1cc(-c2cnn(C3CCNCC3)c2)cnc1N)c1c(Cl)ccc(F)c1Cl [crizotinib]
# Summary of the method: as §1
# [5] = compound: C[C@@H]1COCCN1C2=NC(=NC(=C2)C3(CC3)S(=O)(=O)C)C4=C5C=CNC5=CC=C4
# Summary of the method: as §1
# [6] = compound: C[C@H](C1=CC=C(C=C1)C(=O)NC2=C3C=CNC3=NC=C2)N
# Summary of the method: as §1
# duvelisib = compound: C[C@H](Nc1ncnc2nc[nH]c12)c1cc2cccc(Cl)c2c(=O)n1-c1ccccc1 [duvelisib]
# Summary of the method: as §1
# tozasertib = compound: Cc1cc(Nc2cc(N3CCN(C)CC3)nc(Sc3ccc(NC(=O)C4CC4)cc3)n2)n[nH]1 [tozasertib]
# Summary of the method: as §1
# [7] = compound: Cc1cc(SCc2sc(-c3ccc(C(F)(F)F)cc3)nc2C)ccc1OCC(=O)O
# Summary of the method: as §1
# doramapimod = compound: Cc1ccc(-n2nc(C(C)(C)C)cc2NC(=O)Nc2ccc(OCCN3CCOCC3)c3ccccc23)cc1 [doramapimod]
# Summary of the method: as §1
# ispinesib = compound: Cc1ccc(C(=O)N(CCCN)[C@@H](c2nc3cc(Cl)ccc3c(=O)n2Cc2ccccc2)C(C)C)cc1 [ispinesib]
# Summary of the method: as §1
# pictilisib = compound: CS(=O)(=O)N1CCN(Cc2cc3nc(-c4cccc5[nH]ncc45)nc(N4CCOCC4)c3s2)CC1 [pictilisib]
# Summary of the method: as §1
# gandotinib = compound: Cc1cc(Nc2cc(CN3CCOCC3)c3nc(C)c(Cc4ccc(Cl)cc4F)n3n2)n[nH]1 [gandotinib]
# Summary of the method: as §1
Target,log2 fold change [1],log2 fold change (filanesib),log2 fold change (zotarolimus),log2 fold change (idasanutlin),log2 fold change (alisertib),log2 fold change [2],log2 fold change (gefitinib),log2 fold change [3],log2 fold change (lapatinib),log2 fold change [4],log2 fold change (crizotinib),log2 fold change [5],log2 fold change [6],log2 fold change (duvelisib),log2 fold change (tozasertib),log2 fold change [7],log2 fold change (doramapimod),log2 fold change (ispinesib),log2 fold change (pictilisib),log2 fold change (gandotinib)
MTFR2 (UniProt Q6P444),inactive: -0.01,inactive: -0.076,inactive: -0.015,inactive: -0.151,inactive: -0.288,inactive: -0.028,inactive: -0.022,inactive: 0.071,inactive: -0.308,inactive: 0.059,inactive: -0.107,inactive: 0,inactive: -0.058,inactive: -0.072,inactive: 0.013,inactive: -0.034,inactive: -0.034,inactive: -0.1,–,–
MRPS27 isoform 2 (UniProt Q92552),inactive: 0.062,inactive: 0.029,inactive: 0.068,inactive: -0.124,inactive: -0.05,inactive: -0.024,inactive: 0.016,inactive: -0.014,inactive: 0.036,inactive: -0.017,inactive: -0.062,inactive: 0.005,inactive: 0.097,–,–,inactive: 0.096,inactive: 0.013,active: -0.304,inactive: -0.038,inactive: 0.094
MYH16 (UniProt Q9H6N6),active: 0.886,inactive: -0.263,inactive: -0.118,inactive: -0.066,inactive: 0.163,inactive: -0.052,inactive: -0.03,inactive: -0.031,inactive: 0.204,inactive: -0.33,inactive: -0.097,–,inactive: -0.012,–,–,–,inactive: 0.399,–,inactive: -0.448,inactive: -0.279
MVB12A (UniProt Q96EY5),inactive: -0.231,inactive: -0.059,–,inactive: 0.037,inactive: 0.007,inactive: 0.012,inactive: -0.009,inactive: -0.044,inactive: 0.002,inactive: 0.043,inactive: -0.005,inactive: 0.043,–,inactive: 0.131,inactive: -0.104,inactive: 0.05,inactive: 0.042,inactive: -0.076,inactive: -0.007,inactive: -0.2
MRPS26 (UniProt Q9BYN8),inactive: -0.039,inactive: 0.09,inactive: 0.04,inactive: -0.145,inactive: -0.078,inactive: 0.041,–,inactive: 0.072,inactive: 0.074,inactive: 0.097,inactive: 0.005,inactive: 0.009,inactive: 0.291,–,–,inactive: 0.065,inactive: 0.059,active: -0.421,inactive: -0.155,inactive: 0.158
MSL1 (UniProt Q68DK7),inactive: -0.163,inactive: -0.013,–,inactive: -0.113,inactive: -0.081,inactive: 0.275,inactive: 0.04,inactive: -0.012,inactive: -0.117,inactive: 0.092,inactive: 0,inactive: 0.049,–,–,–,inactive: -0.162,inactive: -0.054,inactive: -0.078,inactive: 0.197,inactive: 0.31
MRPS33 (UniProt Q9Y291),inactive: -0.033,inactive: 0.002,inactive: 0.043,inactive: -0.167,inactive: -0.052,inactive: -0.057,inactive: 0,inactive: 0.008,inactive: 0.036,inactive: 0.041,inactive: 0.005,inactive: 0.005,inactive: 0.168,–,–,inactive: 0.121,inactive: 0.034,active: -0.485,inactive: -0.1,inactive: -0.034
MXRA8 isoform 2 (UniProt Q9BRK3),inactive: -0.472,inactive: -0.076,inactive: 0.017,inactive: 0.173,inactive: -0.264,–,–,inactive: 0.083,–,inactive: 0.078,inactive: 0.071,inactive: 0.311,inactive: 0.035,–,inactive: 0.012,–,inactive: 0.054,inactive: 0.048,–,–
MYD88 isoform 6 (UniProt Q99836),inactive: -0.105,inactive: 0.087,–,inactive: -0.127,inactive: -0.156,inactive: -0.165,inactive: -0.094,inactive: -0.658,inactive: 0.389,inactive: -0.027,inactive: -0.065,inactive: -0.033,–,–,–,–,inactive: 0.183,–,inactive: -0.06,inactive: 0.051
MRPS15 (UniProt P82914),inactive: 0.041,inactive: 0.145,inactive: 0.095,inactive: -0.265,inactive: -0.024,inactive: 0.016,inactive: -0.054,inactive: 0.024,inactive: 0.08,inactive: 0.09,inactive: -0.092,inactive: 0.022,inactive: 0.072,–,–,inactive: 0.067,inactive: 0.042,active: -0.318,inactive: -0.13,inactive: -0.053
MUL1 (UniProt Q969V5),inactive: -0.044,inactive: 0.042,inactive: -0.064,inactive: -0.052,inactive: 0.069,inactive: -0.05,inactive: 0.017,inactive: -0.08,inactive: 0.006,inactive: -0.023,inactive: 0.038,inactive: 0.078,inactive: -0.006,–,–,inactive: -0.02,inactive: 0.056,inactive: -0.01,inactive: 0.006,inactive: -0.018
MT-CO3 (UniProt P00414),inactive: -0.104,inactive: -0.184,inactive: 0.128,inactive: -0.395,inactive: 0.145,inactive: 0.17,–,inactive: 0.048,inactive: 0.012,inactive: -0.094,inactive: -0.097,–,inactive: -0.061,inactive: 0.231,inactive: 0.055,inactive: 0.243,inactive: 0.03,inactive: -0.009,–,–
MT-ND1 (UniProt P03886),inactive: -0.051,inactive: 0.053,inactive: 0.131,inactive: -0.141,inactive: -0.015,inactive: -0.152,inactive: 0.1,inactive: 0.051,inactive: -0.113,inactive: -0.011,inactive: -0.179,inactive: 0.287,inactive: -0.039,–,–,inactive: -0.081,inactive: 0.056,inactive: 0.178,–,–
MRPS18C (UniProt Q9Y3D5),inactive: 0.042,inactive: 0.113,inactive: 0.008,inactive: 0.134,inactive: -0.33,inactive: -0.179,–,inactive: 0.024,inactive: 0.087,inactive: -0.039,inactive: 0.015,inactive: 0.082,inactive: 0.146,inactive: -0.009,inactive: -0.131,inactive: -0.058,inactive: -0.094,inactive: -0.249,inactive: -0.144,inactive: -0.38
MT-CO1 (UniProt P00395),inactive: 0.003,inactive: -0.131,inactive: 0.112,inactive: -0.075,inactive: -0.005,inactive: -0.004,inactive: 0.023,inactive: 0.068,inactive: -0.111,inactive: 0.088,inactive: 0.053,–,inactive: 0.015,–,inactive: 0.111,–,inactive: -0.063,inactive: 0.069,–,–
MTCH2 (UniProt E9PIE4),inactive: 0.087,inactive: -0.048,–,inactive: -0.009,inactive: 0.001,inactive: -0.046,inactive: -0.005,inactive: 0.057,inactive: -0.051,inactive: -0.025,inactive: 0.11,inactive: 0.03,–,inactive: 0.032,–,inactive: 0.007,inactive: -0.058,–,–,–
MRPS14 (UniProt O60783),inactive: -0.036,inactive: 0.021,inactive: 0.06,inactive: -0.107,–,inactive: -0.045,inactive: 0.008,–,inactive: -0.077,inactive: -0.025,inactive: -0.14,inactive: -0.052,inactive: 0.121,inactive: -0.038,inactive: -0.087,inactive: 0.117,inactive: 0.109,inactive: -0.14,inactive: 0.331,inactive: -0.189
MTHFD1 (UniProt P11586),inactive: 0.048,inactive: -0.07,inactive: 0.04,inactive: -0.036,inactive: -0.001,inactive: 0.017,inactive: 0.055,inactive: -0.015,inactive: 0.014,inactive: 0.101,inactive: -0.15,inactive: 0.107,inactive: -0.003,–,–,inactive: 0.054,inactive: -0.053,inactive: -0.021,inactive: -0.002,inactive: -0.077
MTRF1 (UniProt O75570),–,inactive: -0.179,–,inactive: 0.11,–,–,–,–,–,inactive: 0.259,–,–,–,–,–,–,–,–,–,–
MYO9A isoform 4 (UniProt B2RTY4),inactive: -0.068,inactive: -0.063,–,inactive: 0.092,–,–,–,–,–,inactive: -0.074,inactive: -0.055,inactive: -0.013,–,inactive: -0.084,–,inactive: 0.113,inactive: 0.027,–,inactive: 0.208,inactive: -0.309

# Two records picked at random from those above, as already listed:
Target,log2 fold change [1],log2 fold change (filanesib),log2 fold change (zotarolimus),log2 fold change (idasanutlin),log2 fold change (alisertib),log2 fold change [2],log2 fold change (gefitinib),log2 fold change [3],log2 fold change (lapatinib),log2 fold change [4],log2 fold change (crizotinib),log2 fold change [5],log2 fold change [6],log2 fold change (duvelisib),log2 fold change (tozasertib),log2 fold change [7],log2 fold change (doramapimod),log2 fold change (ispinesib),log2 fold change (pictilisib),log2 fold change (gandotinib)
MRPS15 (UniProt P82914),inactive: 0.041,inactive: 0.145,inactive: 0.095,inactive: -0.265,inactive: -0.024,inactive: 0.016,inactive: -0.054,inactive: 0.024,inactive: 0.08,inactive: 0.09,inactive: -0.092,inactive: 0.022,inactive: 0.072,–,–,inactive: 0.067,inactive: 0.042,active: -0.318,inactive: -0.13,inactive: -0.053
MT-CO3 (UniProt P00414),inactive: -0.104,inactive: -0.184,inactive: 0.128,inactive: -0.395,inactive: 0.145,inactive: 0.17,–,inactive: 0.048,inactive: 0.012,inactive: -0.094,inactive: -0.097,–,inactive: -0.061,inactive: 0.231,inactive: 0.055,inactive: 0.243,inactive: 0.03,inactive: -0.009,–,–
